Results are given in words; binding and its absence hold for the method and conditions named. Some entries that bind do so weakly or less than the wild type.
How the values were obtained:
LexA-RXR [1] = biological target: T1, LexA-RXR (bacterial; human, UniProt P0A7C2 1-202; P19793 196-462, limits assumed); test: yeast interaction trap, X-gal plate, without ligand; B = blue (strong interaction)
T1 sequence (looked up): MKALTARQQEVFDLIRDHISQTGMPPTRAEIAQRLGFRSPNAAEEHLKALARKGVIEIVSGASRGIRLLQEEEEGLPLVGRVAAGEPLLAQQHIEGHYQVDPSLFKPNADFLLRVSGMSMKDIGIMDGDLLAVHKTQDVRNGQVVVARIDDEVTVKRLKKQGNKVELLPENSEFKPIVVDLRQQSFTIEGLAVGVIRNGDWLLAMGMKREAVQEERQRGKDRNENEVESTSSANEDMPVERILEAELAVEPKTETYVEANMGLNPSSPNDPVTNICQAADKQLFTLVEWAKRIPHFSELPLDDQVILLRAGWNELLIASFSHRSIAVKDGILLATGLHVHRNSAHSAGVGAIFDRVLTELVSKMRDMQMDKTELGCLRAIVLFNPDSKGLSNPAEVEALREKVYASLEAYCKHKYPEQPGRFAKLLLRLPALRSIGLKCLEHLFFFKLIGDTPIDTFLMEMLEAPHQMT

LexA-RXR [2] = biological target: T1, LexA-RXR; test: yeast interaction trap, β-galactosidase assay of liquid cultures, with and without 9-cis-RA (FIG. 1)
LexA-RXR [3] = biological target: T1, LexA-RXR; test: yeast interaction trap, X-gal plate, with 9-cis-RA; B = blue (strong interaction)
LexA-RXR [4] = biological target: T1, LexA-RXR; test: yeast interaction trap, X-gal plates (Table 1)
LexA-MB67 [5] = biological target: T2, LexA-MB67 (bacterial, UniProt P0A7C2 1-202; Q14994 76-348, limits assumed); test: yeast interaction trap, X-gal plates
T2 construct: Made by PCR, 'analogous' to LexA-RXR and LexA-TR; also called Lex fusion MB67
T2 sequence (looked up): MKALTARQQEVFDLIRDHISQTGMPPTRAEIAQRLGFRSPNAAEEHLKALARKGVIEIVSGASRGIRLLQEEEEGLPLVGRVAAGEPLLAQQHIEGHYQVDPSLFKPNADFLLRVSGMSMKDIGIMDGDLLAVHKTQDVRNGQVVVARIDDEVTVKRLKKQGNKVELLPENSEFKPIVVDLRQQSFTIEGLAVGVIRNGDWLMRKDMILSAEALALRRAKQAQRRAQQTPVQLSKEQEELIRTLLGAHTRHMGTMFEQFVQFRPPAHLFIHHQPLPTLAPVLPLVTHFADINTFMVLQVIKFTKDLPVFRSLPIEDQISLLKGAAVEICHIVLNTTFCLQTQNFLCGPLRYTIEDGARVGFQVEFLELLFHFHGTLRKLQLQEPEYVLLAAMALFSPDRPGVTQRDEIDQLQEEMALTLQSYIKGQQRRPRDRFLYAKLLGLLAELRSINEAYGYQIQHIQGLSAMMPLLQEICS

LexA-MB67 [6] = biological target: T2, LexA-MB67; test: yeast interaction trap, X-gal plate; B = blue (strong interaction)
LexA-MB67 [7] = biological target: T2, LexA-MB67; test: yeast interaction trap, X-gal plates (Table 1)
LexA-TR [8] = biological target: T3, LexA-TR (bacterial; rat, UniProt P0A7C2 1-202; P18113 170-461, limits assumed); test: yeast interaction trap, X-gal plate, without ligand; B = blue (strong interaction)
T3 construct: also called Lex fusion TR
T3 sequence (looked up): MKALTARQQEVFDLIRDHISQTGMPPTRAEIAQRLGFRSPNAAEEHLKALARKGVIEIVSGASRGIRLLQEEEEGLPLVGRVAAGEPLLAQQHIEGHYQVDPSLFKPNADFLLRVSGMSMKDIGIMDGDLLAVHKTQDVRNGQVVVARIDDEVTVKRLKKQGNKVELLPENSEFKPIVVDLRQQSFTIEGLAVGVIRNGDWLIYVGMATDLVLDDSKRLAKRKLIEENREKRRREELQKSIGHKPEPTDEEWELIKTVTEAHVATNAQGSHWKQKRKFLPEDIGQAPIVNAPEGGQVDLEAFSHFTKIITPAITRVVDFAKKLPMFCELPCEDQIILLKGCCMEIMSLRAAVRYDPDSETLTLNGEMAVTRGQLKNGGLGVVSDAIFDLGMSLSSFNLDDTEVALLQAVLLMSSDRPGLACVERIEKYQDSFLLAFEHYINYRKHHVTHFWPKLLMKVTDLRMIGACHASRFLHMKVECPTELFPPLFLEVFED

LexA-TR [9] = biological target: T3, LexA-TR; test: yeast interaction trap, X-gal plates, with and without T3
LexA-TR [10] = biological target: T3, LexA-TR; test: yeast interaction trap, X-gal plate, with T3; B = blue (strong interaction)
LexA-TR [11] = biological target: T3, LexA-TR; test: yeast interaction trap, X-gal plates (Table 1)

Measured: binding

B1: B42-RIP15 (other, not shown: large carriers)
chain: EEQIRKKRIQKQQQQQPPPPSEPAASSSGRPAASPGTSEASSQGSGEGEGIQLTAAQELMIQQLVAAQLQCNKRSFSDQPKVTPWPLGADPQSRDARQQRFAHFTELAIISVQEIVDFAKQVPGFLQLGREDQIALLKASTIEIMLLQTARRYNHETECITFLKDFTYSKDDFHRAGLQVEFINPIFEFSRAMRRLGLDDAEYALLIAINIFSADRPNVQEPSRVEALQQPYVEALLSYTRIKRPQDQLRFPRMLMKLVSLRTLSSVHSEQVFALRLQDKKLPPLLSEIWDVHE
notes: Original yeast clone; Its B42 fusion junction is near the beginning of the hinge (D) domain, with no residue number stated; also called B42 fusion 15; RIP15 chimera
binds: LexA-RXR [1] | LexA-RXR [2] | LexA-RXR [3] | LexA-RXR [4]

B2: B42-PPAR (plasmid isolated from the screening, as used in Table 1) (other, mouse, UniProt P23204 91-468, looked up, not shown: large carriers)
chain: DESPGSALNIECRICGDKASGYHYGVHACEGCKGFFRRTIRLKLVYDKCDRSCKIQKKNRNKCQYCRFHKCLSVGMSHNAIRFGRMPRSEKAKLKAEILTCEHDLKDSETADLKSLGKRIHEAYLKNFNMNKVKARVILAGKTSNNPPFVIHDMETLCMAEKTLVAKMVANGVEDKEAEVRFFHCCQCMSVETVTELTEFAKAIPGFANLDLNDQVTLLKYGVYEAIFTMLSSLMNKDGMLIAYGNGFITREFLKNLRKPFCDIMEPKFDFAMKFNALELDDSDISLFVAAIICCGDRPGLLNIGYIEKLQEGIVHVLKLHLQSNHPDDTFLFPKLLQKMVDLRQLVTEHAQLVQVIKKTESDAALHPLLQEIYRDMY
notes: 'For B42-PPAR, the plasmid isolated from the screening was used'; also called B42 fusion PPAR
binds: LexA-RXR [1] | LexA-RXR [3]

B3: B42-RIP110 (protein, not shown: large carriers)
chain: SPSCGFQRKDLETSSCVSIKKKRRLEDLLIVISDSDGEETKEENGLQKTKTKQSNRSKCLAKRKVAHMSEEEQFALALKMSEQEAREVNNQEEKEEELLRKAIAESLNSCWSSAASATRSRPLAAELSSHSHQENTKDSGTTEGVWQLVPPSLCKGSHVSQGNEAEQRKEPWDHNENTEEEPVSGSSGSWDQSSQPVFENENVKCFDRCTGHLAEHTQCGKPQESTGSGYAFSKAVQGRGDTSRQCLPIPADTKGLQDTGGTVHYYWGIPFCPAGVDPNQYTNVILCQLEVYQKSLKMAQRQLVKKRGFGEPVLPRPPFLIQNECGQEDQTSDKNEGISEDMGDEAKEERQESRASVWHSETKDFQKSPIKSLKQKLLLEEEPTTSRGQSSQGLFVEETSEEGLKSSEGDNSVPTTQSIAALTSKRSLVLMPESSAEEITVCPETQLSFLEPLDLNREDSPDSRELPIEVRMAVGDKQVANREDCMKENPPPAVSSSTRVSCPLCNQDFPPTKIEQHAMYCNGLMEQETVLTRRRREAKNKSDGRTAAQPALDANRKEKCYLCKSLVPLGEYQCHVEACLQLAKVDREDGIEGTRRPRVCAPVEGKQQQRLKKSKDKGHSQGRLLSLLEQSEHRTTGVEKKPKYSEVRTFRMPSPEVEEASCSREMQSTLSQLNLNESPIKSFVPVSEATNCLVDFKEQFAFRSRTKSGRERRRKS
binds: LexA-MB67 [5] | LexA-MB67 [6] | LexA-MB67 [7]

B4: B42-RIP13 (other, not shown: large carriers)
chain: DALAALVDAAASAPQMDVSKTKESKHEAARLEENLRSRSAAVSEQQQLEQKNLEVEKRSVQCVCTSSALPSGKAQPHASVVYSEAGKDKGPPPKSRYEEELRTRGKTTITAANFIDVTITRQIASDKDARERGSQSSDSSSSLSSHRYETASDAIEVISPASSPAPPQEKPQAYQPDMVKANQAENESTRQYEGPLHHYRSQQESPSPQQQPPLPPSSQSEGMGQVPRTHRLITLADHICQIITQDFARNQVPSQPSTSTFQTSPSALSSTPVRTKTSSRYSPESQSQTVLHPRPGPRVSPENLVDKSRGSRPGKSPERSHIPSEPYEPISPPQGPAVHEKQDSMLLLSQRGVDPAEQRSDSRSPGSISYLPSFFTKLESTSPMVKSKKQEIFRKLNSSGGGDSDMAAAQPGTEIFNLPAVTTSGAVSSRSHSFADPASNLGLEDIIRKALMGSFDDKVEDHGVVMSHPVGIMPGSASTSVVTSSEARRDEGEPSPHAGVCKPKLINKSNSRKSKSPIPGQSYLGTERPSSVSSVHSEGDYHRQTPGWAWEDRPSSTGSTQFPYNPLTIRMLSSTPPTQIACAPSAITQAAPHQQNRIWEREPAPLLSAQYETLSDSDD
binds: LexA-TR [8] | LexA-TR [9] | LexA-MB67 [6] | LexA-TR [10] | LexA-MB67 [7] | LexA-TR [11]

Source: patent US7115711 (GENERAL HOSPITAL, dated 2006)
